Assay results: patent publication US20160015064A1, “COMPOUNDS, COMPOSITIONS, AND METHODS FOR MODULATING SWEET TASTE” (CHROMOCELL CORPORATION, priority 2013, published 2016)
For some of these results: At least one read-out could not be matched to a standard name with certainty. Some results were stated once for a whole list of compounds, not compound by compound.

Tests used:
[1] = test system: perception of the sweet taste of an aqueous solution of sweetener; experiment: Two-alternative forced choice sip and spit method (2AFC); type: in vivo, humans; conditions: test sample 5% sucrose
Method: The effect of the test compounds on the perception of the sweet taste of an aqueous solution of sweetener in humans was evaluated using a two-alternative forced choice “sip and spit” method (2AFC).
(§1) The aqueous sweetener solutions were prepared by adding, fructose, sucrose or glucose (by weight), to water to achieve the desired concentration.
Compounds were first prepared as a 500-fold concentrated stock solution in 100% ethanol. These concentrated stocks were then added to the aqueous sweetener solutions to result in a final ethanol concentration of 0.2%. The control (positive and negative) samples were also normalized to 0.2% ethanol. This level of ethanol was not seen to contribute any perceived sweetness.
The 2AFC test used for compound evaluation was a blind and randomized test where taste panelists (n=15) evaluate a pair of sweetener solutions at a time—one sample contains aqueous sweetener solution plus compound (i.e. test) while the other contains aqueous sweetener solution at higher concentration without compound (i.e. positive control). Each test sample was compared against a positive control. […]
Panelists were instructed not to eat or drink (except water) for at least 1 h before the test. […] Data were analyzed using binomial probabilities.
Approximate levels of sweetness enhancement in column 5 of Table 2 were calculated as follows: […]

[2] = test system: perception of the sweet taste of an aqueous solution of sweetener; experiment: Ranking sip and spit test of sweetness perception (R index); type: in vivo, humans; conditions: 5% sucrose test sample; compound 10 ppm; vs negative control; significant at R index ≧60
Method: The effect of the test compounds on the perception of the sweet taste of an aqueous solution of sweetener in humans was evaluated using a ranking “sip and spit” method.
as §1
Compounds were first prepared as a 500-fold concentrated stock solution in 100% ethanol. These concentrated stocks were then added to the aqueous sweetener solutions to result in a final ethanol concentration of 0.2%. The control (positive and negative) samples were also normalized to 0.2% ethanol.
In the ranking test used for compound evaluation, taste panelists (n=15), rank samples in increasing order of sweetness. One set, comprising of 6 samples, was presented to each panelists at a given time and are asked to rank them in order of increasing sweetness.
Panelists were instructed not to eat or drink (except water) for at least 1 h before the test. During the test, panelists were instructed to sip each sample, swirl it around their mouth and then expectorate. After tasting each set, panelists were instructed to rank the 6 samples within the set from least sweet to most sweet. Where rank 1—is lowest in sweetness and rank 6—is highest in sweetness. Panelists cleansed their palates by rinsing with water, eating a cracker and waiting for an interval of 10 minutes. […]

[3] = Solubilization of the compounds in solvents/solubilizers and clarity in lemon-lime beverage; type: physicochemical
Method: To identify a sufficient delivery mechanism for the sweet enhacing compounds of the present invention, several method of solublization were tested for use in clear beverages. The overall goal was to solubilize the compounds of the invention and have them be deliverable in a clear, carbonated beverage, which can be sweetened with various forms of nutritive and non-nutritive sweeteners without negative flavor impact, i.e. no loss in efficacy (the sweetness perception increase) and no off-flavor formation. In particular, the goal was to identify a delivery mechanism that would allow the compounds to be delivered to the beverage at an “as consumed” level between 10 ppm and 50 ppm. […] The carrier ingredients should not impart any negative physical attributes or negative flavor attributes to the product. An ideal delivery system would not require the labeling of any carrier ingredients and would work with a beverage concentrate model system, preferably a 1+5 concentrate throw. […]
Because Q-[…]® was able to maintain the stability of the sweet enhancing compounds, it was evaluated in combination with additional solvents. […]
In another example, 40 mg Compound 3 and 1 g rubusoside were weighed into 20 ml glass vials. […] The weight ratio between rubusoside and Compound 3 was determined to be 147:1. […]
The ability of sugar to co-melt with compounds of the invention was also evaluated. […]

COc1ccc(C2CC(=O)c3c(O)cccc3O2)cc1O (single isomer, unassigned) [Compound 2, 5-hydroxy-2-(3-hydroxy-4-methoxyphenyl)chroman-4-one]
Fold increase in perceived sweetness ([1]; compound 15, 25 ppm with positive 2AFC): > 1.2 X

O=C1c2c(O)cc(O)cc2OC(c2ccc(O)c(O)c2)C1O (stereo not shown) [Compound 11, 2-(3,4-dihydroxyphenyl)-3,5,7-trihydroxychroman-4-one]
R Index Score [2]: 64

COc1ccc(C2CC(=O)c3c(O)cccc3O2)cc1O (single isomer, unassigned) [Compound 3, 5-hydroxy-2-(3-hydroxy-4-methoxyphenyl)chroman-4-one]
Fold increase in perceived sweetness ([1]; compound 15 ppm with positive 2AFC, positive control surpassed / test sweetener concentration): > 1.2 X
Solubilization by polysorbate 80 [3]: able to solubilize
